The record followed here is PubChem BioAssay AID493014 (National Center for Advancing Translational Sciences (NCATS), 2011).

The other results are listed elsewhere or left out. The main result of the screen is listed elsewhere. These columns were measured beside it and carry no call. Most of these compounds were active or inconclusive in the main read-out, so they are no random draw. Words in brackets tell the shape of the fitted curve; partial curves, single points and poor fits give uncertain potencies.

The experiment can be described thus: qHTS Assay to Find Inhibitors of Chronic Active B-Cell Receptor Signaling. Conditions: ABC-DLBCL IkBa-CBG/CBR reporter, luminescence ratio (green luciferase fused to IkBa over red control in TMD8 lymphoma cells), 4 h. The essentials: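 TMD8 human ABC-DLBCL cells with doxycycline-inducible IκBα–green luciferase fusion and unfused red luciferase, in 0.5% FBS medium; compounds up to 46 uM, 4 h at 37C. Green/red luminescence ratio, filter-overlap corrected, fitted to concentration-response curves.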

The mark [1] stands for this setting: measured here: CBR red luminescence, cell number.
Setting [2] is: measured here: IkBa-CBG green luminescence.

One may read the AC50 as the concentration giving half of the maximal activity seen. Consider `C=CCn1c(O)c(C2=c3ccccc3=NC2=O)c2ccccc21`, for which, under setting [1], the AC50 is 35.5 µM [falling, single point]. As to `Fc1ccc2cnc(-c3ccccc3)c(-c3cccc(C(F)(F)F)c3)c2c1`, the AC50 under setting [1] was 4.61 µM [falling, full curve]. Take `COc1cccc(/C=N/NC(=O)c2[nH]nc3c2CCc2ccccc2-3)c1O`: the AC50 reads like this: under setting [1], 5.17 µM [falling, full curve, poor fit]; under setting [2], 20.6 µM [falling, partial curve, poor fit]. As for `O=c1c2cc3c(=O)n(-c4ccccc4O)c(=O)c3cc2c(=O)n1-c1ccccc1O`, under setting [1], the AC50 was 11.2 µM [falling, partial curve]. Still for that read-out and setting: under `Cc1cccc(Cc2c(C)nc3c(C(=O)N4CCN(Cc5ccc6c(c5)OCO6)CC4)cnn3c2C)c1` stands 14.1 µM [falling, single point]. The same measure, in the same setting: under `Cc1ccccc1Nc1nc(N)nc(COC(=O)C(NC(=O)c2ccco2)C(C)C)n1` (configuration not stated) stands 3.55 µM [rising, full curve, poor fit]; under `O=C(Nc1nc2ccccc2s1)c1ccccc1`, 1.26 µM [falling, full curve]; under `O=C(c1ccc2c3c(cccc13)CC2)C1CCCN(Cc2cccnc2)C1` (configuration not stated), 31.6 µM [falling, single point]. As for `COc1ccccc1-n1c(SCC(=O)OC(C)C)nc2cccnc21`, the AC50 under setting [1] is 7.94 µM [rising, partial curve, poor fit]. Regarding `Cc1ccc(NC(=O)Nc2ccc([N+](=O)[O-])cc2)nc1`, the AC50 under setting [1] is 0.708 µM [rising, full curve, poor fit]. Regarding `COc1ccccc1NC(=O)c1ccccc1NC(=O)c1cccs1`, the concentration at half-maximal activity (AC50) under setting [1] was 35.5 µM [falling, single point]. Still for that read-out and setting: under `COC(=O)c1sccc1NC(=O)Nc1ccc(C(C)=O)cc1` stands 1.26 µM [falling, full curve]. Take `CCOc1ccc2c(c1)OC(c1ccc(C)cc1)(C(F)(F)F)NC2=O` (configuration not stated): the AC50 is, setting by setting: under setting [1], 20.6 µM [rising, partial curve, poor fit]; under setting [2], 18.4 µM [falling, single point]. For `COc1ccc(Nc2nc(C)cc(C)n2)cc1Cl`, the half-maximal activity concentration (AC50) under setting [1] is 10 µM [rising, partial curve, poor fit].

For `CCOC(=O)/C(O)=C(\C#N)c1nc2ccccc2[nH]1`, under setting [1], the AC50 is 11.2 µM [falling, partial curve]. Still for that read-out and setting: under `COc1cc(/C=C/C(=O)O)cc(S(=O)(=O)Nc2ccccc2C(=O)NCCc2ccccc2)c1OC` stands 14.1 µM [falling, single point]. On the same count and under the same terms, under `O=C(COC(=O)c1ccccc1Cl)NCCC1=CCCCC1` stands 0.891 µM [rising, full curve, poor fit]. Same read-out and setting: under `CCOCCCn1c(=S)[nH]c2cc(C(=O)NCCc3ccc(OC)c(OC)c3)ccc2c1=O` stands 35.5 µM [rising, single point]; under `COc1cccc(NC(=O)CSc2nc3scc(C)c3c(=O)[nH]2)c1`, 3.16 µM [rising, partial curve, poor fit].

Regarding `O=C(N/N=C\c1c[nH]c2ccccc12)c1ccc(O)cc1`, the AC50 under setting [1] was 10 µM [falling, partial curve]. For the molecule `O=C(Nc1cccc(C(=O)N2CCOCC2)c1)c1ncn[nH]1`, the AC50 under setting [1] was 6.51 µM [rising, single point].

Consider `CCn1c(C)c(C(C)=O)c(N2CCCCC2)nc1=S`, for which the AC50 under setting [1] is 25.9 µM [rising, single point]. Still for that read-out and setting: under `CN1CCN(S(=O)(=O)c2cccc(C(=O)Nc3cccc(S(N)(=O)=O)c3)c2)CC1` stands 3.16 µM [rising, partial curve, poor fit]. The same measure, in the same setting: under `C[C@H](NC(=O)N1CCn2c1nc1ccccc12)C(=O)NCCc1ccccc1` stands 35.5 µM [falling, single point].

With `Cc1ccc(C(=O)NCC(=O)OCC(=O)Nc2ccccc2[N+](=O)[O-])cc1`, the half-maximal activity concentration (AC50) under setting [1] was 1.64 µM [rising, full curve, poor fit]. Still for that read-out and setting: under `CC(=O)Nc1ccc(NC(=O)CSc2nc(C)nc3sc(C)c(C)c23)cc1` stands 1.78 µM [rising, partial curve, poor fit]; under `N=C(N)SCc1cccc2ccccc12`, 22.4 µM [falling, single point]; under `Cc1ccc(C2CC2c2n[nH]c(=S)n2-c2ccc(Cl)cc2)cc1` (configuration not stated), 5.8 µM [rising, full curve, poor fit].

`COc1cc(-c2nc(-c3ccccc3)c(-c3ccc(F)cc3)[nH]2)cc2c1OCO2`: the half-maximal activity concentration (AC50) under setting [1] was 16.4 µM [falling, single point]. On the same count and under the same terms, under `O=S(=O)(NCc1ccccn1)c1ccc(Cl)c(C(F)(F)F)c1` stands 6.31 µM [rising, single point]; under `O=C(O)COc1ccc(/C=N/NC(=O)c2cccc3ccccc23)cc1`, 8.91 µM [falling, partial curve, poor fit]; under `CCn1cnc2cc(NCc3ccc(N(C)C)cc3)ccc21`, 0.112 µM [rising, full curve, poor fit]. As for `Clc1cccc(/C(Cc2nc3ccccc3[nH]2)=N\Nc2ccccc2)c1`, the AC50 under setting [1] was 29.1 µM [falling, single point]. Consider `O=C(O)C1CCCCC1C(=O)N1CCN(S(=O)(=O)c2ccc(F)cc2)CC1` (configuration not stated), for which, under setting [1], the AC50 is 35.5 µM [falling, single point]. Still for that read-out and setting: under `CCN(CCn1cccn1)Cc1nc(-c2ccc(C(=O)OC)cc2)no1` stands 12.6 µM [falling, partial curve, poor fit]; under `COc1ccc(OC)c(/C=N/NC(=S)NCCc2ccccc2)c1`, 12.6 µM [falling, partial curve, poor fit].

With `CCC(C(=O)OCC(=O)Nc1cc(Cl)cc(Cl)c1)c1ccccc1` (configuration not stated), under setting [1], the AC50 is 23.1 µM [rising, single point].

Take `COc1ccccc1C(=O)N/C(=C\c1cn(S(=O)(=O)N(C)C)c2ccccc12)C(=O)NCCCN1CCOCC1`: under setting [1], the AC50 was 7.08 µM [falling, partial curve, poor fit]. Take `COC(=O)c1ccc(C(=O)OC)c(NC(=S)N2CCC(C)CC2)c1`: under setting [1], the half-maximal activity concentration (AC50) is 4.61 µM [falling, full curve, poor fit]. The same measure, in the same setting: under `C/C(=C1/C(=O)N(c2ccc([N+](=O)[O-])cc2)N=C1c1ccccc1)N(C)C` stands 20 µM [falling, single point].
